Measured values: PubChem BioAssay AID252 (DTP/NCI, 2004)
The list is a part of this screen's results and no random one: it is rich in T/C values a quarter to a half above the control, in often repeated tests (any T/C) and in doses without a T/C. Further doses and runs are listed elsewhere. T/C: endpoint of the treated group in % of that of the vehicle group. Some doses have a count of surviving animals in place of a T/C: the source holds a T/C of zero for them, seemingly a mark for toxic or unscored doses. Some doses without a T/C left all or most animals alive at the check, yet need not have been tolerated: the source hardly ever lists a survival T/C far under the control, and the zero likely stands for such cases as well. Survivors were counted at the toxicity check, usually on the fifth day, unless a day is given; later deaths do not show. Schedule codes are those of the source, taken here to give the interval after Q, in days (D) or hours (H), and the number of doses after X. Some schedules carry Z or #; the key to these is not given. Some entries were tested several times; their values stand side by side, smallest first. For survival time, the PubChem record calls one and a half times the control and up active, and a quarter to a half above the control has no call in these data; cut-offs in other NCI protocols can differ. Signs of the kind (2×) give the number of equal values in this list. Some T/C values carry the count of animals alive at the toxicity check (mostly the fifth day); without a count, all were alive then.

System: BDF1 mice, intracerebral L1210 leukemia, survival T/C
Assay: NCI In Vivo Anticancer Drug Screen. Data for tumor model L1210 Leukemia (intracerebral) in B6D2F1 (BDF1) mice
Conditions: higher T/C = longer survival
Procedure: The antitumor activity of compounds was measured in mice bearing transplantable tumors. Survival or tumor size were measured and the results are expressed as the measurement made in the treated group (T) divided by the measurement made in the vehicle treated control group (C). The tumor model used in this assay is L1210 Leukemia (intracerebral) in B6D2F1 (BDF1) mice

O=P1(N(CCCl)CCCl)NCCCO1 (configuration not stated)
T/C (T/C endpoint: mean survival time, dose: 23.0 mg/kg/injection, schedule: Q01DX009 (sc), vehicle: saline): 136 % of control | T/C (T/C endpoint: mean survival time, dose: 35.0 mg/kg/injection, schedule: Q01DX Z (ip), vehicle: saline): 127 % of control | T/C (T/C endpoint: mean survival time, dose: 50.0 mg/kg/injection, schedule: Q01DX001 (ip), vehicle: saline, evaluated on day 5): 106 and 110 % of control | T/C (T/C endpoint: mean survival time, dose: 50.0 mg/kg/injection, schedule: Q01DX001 (ip), vehicle: saline, evaluated on day 30): 100 % of control | T/C (T/C endpoint: mean survival time, dose: 50.0 mg/kg/injection, schedule: Q01DX001 (ip), vehicle: saline, evaluated on day 33): 103 % of control | T/C (T/C endpoint: mean survival time, dose: 50.0 mg/kg/injection, schedule: Q01DX001 (ip), vehicle: saline, evaluated on day 40): 106 % of control | T/C (T/C endpoint: mean survival time, dose: 50.0 mg/kg/injection, schedule: Q01DX015 (ip), vehicle: saline): 131 % of control | T/C (T/C endpoint: mean survival time, dose: 50.0 mg/kg/injection, schedule: Q01DX Z (ip), vehicle: saline): 130 and 139 % of control | T/C (T/C endpoint: mean survival time, dose: 59.0 mg/kg/injection, schedule: Q01DX001 (ip), vehicle: saline): 125 % of control | T/C (T/C endpoint: mean survival time, dose: 70.0 mg/kg/injection, schedule: Q01DX001 (ip), vehicle: saline, evaluated on day 7): 130 % of control | T/C (T/C endpoint: mean survival time, dose: 70.0 mg/kg/injection, schedule: Q01DX001 (ip), vehicle: saline, evaluated on day 20): 130 % of control | T/C (T/C endpoint: mean survival time, dose: 100.0 mg/kg/injection, schedule: Q01DX001 (ip), vehicle: saline, evaluated on day 5): 112 and 123 % of control | T/C (T/C endpoint: mean survival time, dose: 100.0 mg/kg/injection, schedule: Q01DX001 (ip), vehicle: saline, evaluated on day 21): 123 % of control | T/C (T/C endpoint: mean survival time, dose: 100.0 mg/kg/injection, schedule: Q01DX001 (ip), vehicle: saline, evaluated on day 30): 123 % of control | T/C (T/C endpoint: mean survival time, dose: 100.0 mg/kg/injection, schedule: Q01DX001 (ip), vehicle: saline, evaluated on day 33): 117 % of control | T/C (T/C endpoint: mean survival time, dose: 100.0 mg/kg/injection, schedule: Q01DX001 (ip), vehicle: saline, evaluated on day 40): 112 % of control | T/C (T/C endpoint: mean survival time, dose: 100.0 mg/kg/injection, schedule: Q08DX002 (ip), vehicle: saline): 126 % of control | T/C (T/C endpoint: mean survival time, dose: 101.0 mg/kg/injection, schedule: Q01DX001 (ip), vehicle: saline): 134 % of control | T/C (T/C endpoint: mean survival time, dose: 108.0 mg/kg/injection, schedule: Q01DX001 (ip), vehicle: saline, evaluated on day 7): 126 % of control | T/C (T/C endpoint: mean survival time, dose: 108.0 mg/kg/injection, schedule: Q01DX001 (ip), vehicle: saline, evaluated on day 26): 126 % of control | T/C (T/C endpoint: mean survival time, dose: 108.0 mg/kg/injection, schedule: Q08DX002 (ip), vehicle: saline, evaluated on day 6): 134 % of control | T/C (T/C endpoint: mean survival time, dose: 108.0 mg/kg/injection, schedule: Q08DX002 (ip), vehicle: saline, evaluated on day 7): 109 % of control | T/C (T/C endpoint: mean survival time, dose: 108.0 mg/kg/injection, schedule: Q08DX002 (ip), vehicle: saline, evaluated on day 27): 113 % of control | T/C (T/C endpoint: mean survival time, dose: 108.0 mg/kg/injection, schedule: Q08DX002 (ip), vehicle: saline, evaluated on day 45): 134 % of control | T/C (T/C endpoint: mean survival time, dose: 118.0 mg/kg/injection, schedule: Q01DX001 (ip), vehicle: saline): 134 % of control | T/C (T/C endpoint: mean survival time, dose: 140.0 mg/kg/injection, schedule: Q01DX001 (ip), vehicle: saline, evaluated on day 7): 132 % of control | T/C (T/C endpoint: mean survival time, dose: 140.0 mg/kg/injection, schedule: Q01DX001 (ip), vehicle: saline, evaluated on day 20): 132 % of control | T/C (T/C endpoint: mean survival time, dose: 154.0 mg/kg/injection, schedule: Q01DX001 (ip), vehicle: saline): 132 % of control | T/C (T/C endpoint: mean survival time, dose: 180.0 mg/kg/injection, schedule: Q01DX001 (ip), vehicle: saline, evaluated on day 7): 139 % of control | T/C (T/C endpoint: mean survival time, dose: 180.0 mg/kg/injection, schedule: Q01DX001 (ip), vehicle: saline, evaluated on day 26): 139 % of control | T/C (T/C endpoint: mean survival time, dose: 180.0 mg/kg/injection, schedule: Q08DX002 (ip), vehicle: saline, evaluated on day 6): 150 % of control | T/C (T/C endpoint: mean survival time, dose: 180.0 mg/kg/injection, schedule: Q08DX002 (ip), vehicle: saline, evaluated on day 7): 107 % of control | T/C (T/C endpoint: mean survival time, dose: 180.0 mg/kg/injection, schedule: Q08DX002 (ip), vehicle: saline, evaluated on day 27): 111 % of control | T/C (T/C endpoint: mean survival time, dose: 180.0 mg/kg/injection, schedule: Q08DX002 (ip), vehicle: saline, evaluated on day 45): 149 % of control | T/C (T/C endpoint: mean survival time, dose: 200.0 mg/kg/injection, schedule: Q01DX001 (ip), vehicle: DMSO): 133 and 142 % of control | T/C (T/C endpoint: mean survival time, dose: 200.0 mg/kg/injection, schedule: Q01DX001 (ip), vehicle: Klucel (hydroxypropylcellulose) (HPC)): 142 % of control | T/C (T/C endpoint: mean survival time, dose: 200.0 mg/kg/injection, schedule: Q01DX001 (ip), vehicle: saline, evaluated on day 5): 126 % of control (2×) | T/C (T/C endpoint: mean survival time, dose: 200.0 mg/kg/injection, schedule: Q01DX001 (ip), vehicle: saline, evaluated on day 21): 124 % of control | T/C (T/C endpoint: mean survival time, dose: 200.0 mg/kg/injection, schedule: Q01DX001 (ip), vehicle: saline, evaluated on day 30): 126 % of control [7 of 8 alive] | T/C (T/C endpoint: mean survival time, dose: 200.0 mg/kg/injection, schedule: Q01DX001 (ip), vehicle: saline, evaluated on day 33): 122 % of control | T/C (T/C endpoint: mean survival time, dose: 200.0 mg/kg/injection, schedule: Q01DX001 (ip), vehicle: saline, evaluated on day 40): 126 % of control | T/C (T/C endpoint: mean survival time, dose: 200.0 mg/kg/injection, schedule: Q01DX001 (ip), vehicle: saline, evaluated on day 45): 124 % of control | survivor count (T/C endpoint: mean survival time, dose: 200.0 mg/kg/injection, schedule: Q01DX Z (ip), vehicle: saline): 6 of 6 | T/C (T/C endpoint: mean survival time, dose: 200.0 mg/kg/injection, schedule: Q08DX002 (ip), vehicle: saline, evaluated on day 21): 132 % of control | T/C (T/C endpoint: mean survival time, dose: 200.0 mg/kg/injection, schedule: Q08DX002 (ip), vehicle: saline, evaluated on day 40): 127 % of control | T/C (T/C endpoint: mean survival time, dose: 234.0 mg/kg/injection, schedule: Q01DX001 (ip), vehicle: saline): 143 % of control [9 of 10 alive] | survivor count (T/C endpoint: mean survival time, dose: 250.0 mg/kg/injection, schedule: Q01DX Z (ip), vehicle: saline): 6 of 6 | T/C (T/C endpoint: mean survival time, dose: 280.0 mg/kg/injection, schedule: Q01DX001 (ip), vehicle: saline, evaluated on day 7): 142 % of control | T/C (T/C endpoint: mean survival time, dose: 280.0 mg/kg/injection, schedule: Q01DX001 (ip), vehicle: saline, evaluated on day 20): 142 % of control | T/C (T/C endpoint: mean survival time, dose: 300.0 mg/kg/injection, schedule: Q01DX001 (ip), vehicle: saline): 139 % of control | T/C (T/C endpoint: mean survival time, dose: 300.0 mg/kg/injection, schedule: Q08DX002 (ip), vehicle: saline, evaluated on day 6): 85 % of control | T/C (T/C endpoint: mean survival time, dose: 300.0 mg/kg/injection, schedule: Q08DX002 (ip), vehicle: saline, evaluated on day 7): 101 % of control | T/C (T/C endpoint: mean survival time, dose: 300.0 mg/kg/injection, schedule: Q08DX002 (ip), vehicle: saline, evaluated on day 27): 105 % of control [6 of 8 alive] | survivor count (T/C endpoint: mean survival time, dose: 300.0 mg/kg/injection, schedule: Q08DX002 (ip), vehicle: saline): 3 of 8 | survivor count (T/C endpoint: mean survival time, dose: 375.0 mg/kg/injection, schedule: Q01DX Z (ip), vehicle: saline): 1 of 6 | survivor count (T/C endpoint: mean survival time, dose: 400.0 mg/kg/injection, schedule: Q01DX001 (ip), vehicle: DMSO): 8 of 8 | survivor count (T/C endpoint: mean survival time, dose: 400.0 mg/kg/injection, schedule: Q01DX001 (ip), vehicle: Klucel (hydroxypropylcellulose) (HPC)): 0 of 8 and 4 of 8 | T/C (T/C endpoint: mean survival time, dose: 400.0 mg/kg/injection, schedule: Q01DX001 (ip), vehicle: saline, evaluated on day 5): 75 and 132 % of control | T/C (T/C endpoint: mean survival time, dose: 400.0 mg/kg/injection, schedule: Q01DX001 (ip), vehicle: saline, evaluated on day 21): 130 % of control | T/C (T/C endpoint: mean survival time, dose: 400.0 mg/kg/injection, schedule: Q01DX001 (ip), vehicle: saline, evaluated on day 33): 124 % of control | survivor count (T/C endpoint: mean survival time, dose: 400.0 mg/kg/injection, schedule: Q01DX001 (ip), vehicle: saline): 2 of 8 and 3 of 8 | survivor count (T/C endpoint: mean survival time, dose: 400.0 mg/kg/injection, schedule: Q01DX001 (ip), vehicle: water): 8 of 8 | survivor count (T/C endpoint: mean survival time, dose: 500.0 mg/kg/injection, schedule: Q01DX001 (ip), vehicle: saline): 4 of 8 | survivor count (T/C endpoint: mean survival time, dose: 500.0 mg/kg/injection, schedule: Q01DX Z (ip), vehicle: saline): 0 of 6 | T/C (T/C endpoint: mean survival time, dose: 1120.0 mg/kg/injection, schedule: Q01DX001 (ip), vehicle: saline, evaluated on day 7): 132 % of control | T/C (T/C endpoint: mean survival time, dose: 1120.0 mg/kg/injection, schedule: Q01DX001 (ip), vehicle: saline, evaluated on day 20): 132 % of control | T/C (T/C endpoint: median survival time, dose: 4000.0 mg/kg/injection, schedule: Q01DX001 (oral), vehicle: saline): 126 % of control
